Paper PMC4759862
Results are given in words; binding and its absence hold for the method and conditions named. Binding seen in cells or lysates may run through a third protein. Some binding calls cover weakened binding; strength is not graded here. For part of these data: Tags and fused reporters may be left off the sequences shown.

Assays:
[1] = target: APP695myc (myc-tagged amyloid precursor protein, APP695) (human) (UniProt P05067); assay: co-IP; HEK-293T cells co-transfected with meprin β and APP695myc; NP-40 lysis buffer; 200 μg lysate with protein G sepharose and 9E10 (anti-myc) or polyclonal anti-meprin β antibody over night; Western blot
[2] = target: APP695myc (myc-tagged amyloid precursor protein, APP695) (human) (UniProt P05067); assay: condition: only lysates of separately transfected cells mixed post-lysis; co-IP; control: lysates of cells separately expressing APP (L1) or meprin β (L2) mixed post-lysis, then precipitated with 9E10 or anti-meprin β antibody
[3] = target: APP695 CT split GFP11 (human) (UniProt P05067); assay: split reporter; split GFP: HEK-293T cells co-transfected with APP695 CT split GFP11 and meprin β CT split GFP1-10; fixed 24 h post transfection, confocal microscopy with organelle markers (PDI, GM130, EEA1)

Row | Binder | binding [1] | binding [2] | binding [3]
1 | meprin β (enzyme, UniProt Q16820 62-701) NSIIGEKYRWPHTIPYVLEDSLEMNAKGVILNAFERYRLKTCIDFKPWAGETNYISVFKGSGCWSSVGNRRVGKQELSIGANCDRIATVQHEFLHALGFWHEQSRSDRDDYVRIMWDRILSGREHNFNTYSDDISDSLNVPYDYTSVMHYSKTAFQNGTEPTIVTRISDFEDVIGQRMDFSDSDLLKLNQLYNCSSSLSFMDSCSFELENVCGMIQSSGDNADWQRVSQVPRGPESDHSNMGQCQGSGFFMHFDSSSVNVGATAVLESRTLYPKRGFQCLQFYLYNSGSESDQLNIYIREYSADNVDGNLTLVEEIKEIPTGSWQLYHVTLKVTKKFRVVFEGRKGSGASLGGLSIDDINLSETRCPHHIWHIRNFTQFIGSPNGTLYSPPFYSSKGYAFQIYLNLAHVTNAGIYFHLISGANDDQLQWPCPWQQATMTLLDQNPDIRQRMSNQRSITTDPFMTTDNGNYFWDRPSKVGTVALFSNGTQFRRGGGYGTSAFITHERLKSRDFIKGDDVYILLTVEDISHLNSTQIQLTPAPSVQDLCSKTTCKNDGVCTVRDGKAECRCQSGEDWWYMGERCEKRGSTRDTIVIAVSSTVAVFALMLIITLVSVYCTRKKYRERMSSNRPNLTPQNQHAF | binds | no binding | –
2 | meprin β CT split GFP1-10 (enzyme, UniProt Q16820 62-701) NSIIGEKYRWPHTIPYVLEDSLEMNAKGVILNAFERYRLKTCIDFKPWAGETNYISVFKGSGCWSSVGNRRVGKQELSIGANCDRIATVQHEFLHALGFWHEQSRSDRDDYVRIMWDRILSGREHNFNTYSDDISDSLNVPYDYTSVMHYSKTAFQNGTEPTIVTRISDFEDVIGQRMDFSDSDLLKLNQLYNCSSSLSFMDSCSFELENVCGMIQSSGDNADWQRVSQVPRGPESDHSNMGQCQGSGFFMHFDSSSVNVGATAVLESRTLYPKRGFQCLQFYLYNSGSESDQLNIYIREYSADNVDGNLTLVEEIKEIPTGSWQLYHVTLKVTKKFRVVFEGRKGSGASLGGLSIDDINLSETRCPHHIWHIRNFTQFIGSPNGTLYSPPFYSSKGYAFQIYLNLAHVTNAGIYFHLISGANDDQLQWPCPWQQATMTLLDQNPDIRQRMSNQRSITTDPFMTTDNGNYFWDRPSKVGTVALFSNGTQFRRGGGYGTSAFITHERLKSRDFIKGDDVYILLTVEDISHLNSTQIQLTPAPSVQDLCSKTTCKNDGVCTVRDGKAECRCQSGEDWWYMGERCEKRGSTRDTIVIAVSSTVAVFALMLIITLVSVYCTRKKYRERMSSNRPNLTPQNQHAF | – | – | binds
